{"sequences": {"note": "By UniProt entry, the sequences of proteins in these tests, tags left out.", "UniProt P35524": "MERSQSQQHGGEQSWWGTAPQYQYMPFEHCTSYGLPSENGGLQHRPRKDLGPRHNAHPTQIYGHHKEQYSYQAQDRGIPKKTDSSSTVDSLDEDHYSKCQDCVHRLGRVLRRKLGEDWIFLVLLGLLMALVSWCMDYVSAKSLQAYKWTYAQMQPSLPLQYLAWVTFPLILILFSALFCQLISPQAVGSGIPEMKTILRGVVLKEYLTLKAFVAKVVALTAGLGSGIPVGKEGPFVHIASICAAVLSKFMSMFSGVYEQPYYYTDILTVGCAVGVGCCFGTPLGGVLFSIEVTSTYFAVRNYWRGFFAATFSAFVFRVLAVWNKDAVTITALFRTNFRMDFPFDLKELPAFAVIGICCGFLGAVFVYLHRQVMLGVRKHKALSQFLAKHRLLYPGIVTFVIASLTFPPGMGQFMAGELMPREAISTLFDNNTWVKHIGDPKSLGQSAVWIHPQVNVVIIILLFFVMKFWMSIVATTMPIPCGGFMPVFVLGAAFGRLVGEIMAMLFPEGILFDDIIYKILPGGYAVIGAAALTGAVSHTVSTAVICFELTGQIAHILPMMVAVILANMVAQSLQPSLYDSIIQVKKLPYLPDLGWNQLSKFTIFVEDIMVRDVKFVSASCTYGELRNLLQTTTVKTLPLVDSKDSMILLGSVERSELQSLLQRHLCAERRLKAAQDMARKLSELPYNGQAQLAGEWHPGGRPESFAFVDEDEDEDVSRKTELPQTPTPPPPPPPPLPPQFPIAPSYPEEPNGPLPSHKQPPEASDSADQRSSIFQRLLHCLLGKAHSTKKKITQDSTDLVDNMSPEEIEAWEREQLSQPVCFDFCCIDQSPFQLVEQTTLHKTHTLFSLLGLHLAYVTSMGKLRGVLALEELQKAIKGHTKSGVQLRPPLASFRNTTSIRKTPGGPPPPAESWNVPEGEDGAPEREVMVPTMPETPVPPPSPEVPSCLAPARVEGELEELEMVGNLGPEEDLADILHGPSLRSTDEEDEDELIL", "UniProt Q3B7U9": "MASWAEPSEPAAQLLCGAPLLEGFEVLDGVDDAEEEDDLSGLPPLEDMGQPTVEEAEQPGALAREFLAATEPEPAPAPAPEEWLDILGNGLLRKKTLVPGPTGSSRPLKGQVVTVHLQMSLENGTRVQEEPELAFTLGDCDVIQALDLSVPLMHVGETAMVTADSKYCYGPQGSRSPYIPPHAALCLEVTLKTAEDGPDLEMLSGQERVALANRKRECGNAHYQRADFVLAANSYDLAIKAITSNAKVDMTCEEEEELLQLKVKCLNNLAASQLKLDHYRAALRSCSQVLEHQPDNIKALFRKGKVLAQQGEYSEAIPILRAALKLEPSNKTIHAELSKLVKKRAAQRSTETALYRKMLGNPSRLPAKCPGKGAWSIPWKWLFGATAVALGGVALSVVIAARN"}, "source": "paper PMC6320802", "key": {"[1]": {"target": "CLC-1 chloride channel, endogenous, rat skeletal muscle (rat (endogenous in skeletal muscle)) (UniProt P35524)", "experiment": "co-IP; rat skeletal muscle lysates; immunoprecipitation with anti-CLC-1 (Fig. 5D) or anti-FKBP8 (Fig. 5E) antibody, then immunoblotting; rabbit IgG as specificity control; input about 10% of total protein"}, "[2]": {"target": "FK506-binding protein 8 (FKBP8), endogenous, rat skeletal muscle (rat (endogenous in skeletal muscle)) (UniProt Q3B7U9)", "experiment": "co-IP; rat skeletal muscle lysates; immunoprecipitation with anti-CLC-1 (Fig. 5D) or anti-FKBP8 (Fig. 5E) antibody, then immunoblotting; rabbit IgG as specificity control; input about 10% of total protein"}}, "note": "These are yes or no findings as the source states them, for the method shown. Binding seen in cells or lysates may run through a third protein. Some entries that bind do so weakly or less than the wild type.", "data": [{"substance": "FK506-binding protein 8 (FKBP8), endogenous, rat skeletal muscle (from UniProt Q3B7U9 1-403)", "values": [{"measurement": "binding", "setting": "[1]", "value": "binds"}]}, {"substance": "CLC-1 chloride channel, endogenous, rat skeletal muscle (from UniProt P35524 1-994)", "values": [{"measurement": "binding", "setting": "[2]", "value": "binds"}]}]}
